{"source": "patent US6107489A", "about": "(ConjuChem, Inc., priority 1999, dated 2000)", "experiment": "general procedure: solution-phase peptide synthesis; DCC/HOBT", "details": "for step yield: late stage modification step", "note": "Strings that start with PEPTIDE1 are HELM notation: dots part the residues, brackets hold end groups and non-standard residues.", "data": [{"substance": "Boc-Phe-His-ACHPA-IIe-6-AC-NHS", "values": [{"measurement": "step yield", "value": 12, "unit": "%"}]}, {"substance": "Boc-Phe-His-ACHPA-IIe-6-AC-OMe", "values": [{"measurement": "step yield", "value": 85, "unit": "%"}]}, {"substance": "Boc-Phe-His-ACHPA-IIe-6-AC-sulfo-NHS", "values": [{"measurement": "step yield", "value": 60, "unit": "%"}]}, {"substance": "N-Biotin-Phe-His-ACHPA-IIe-6-AC-OH", "values": [{"measurement": "conjugation yield", "setting": "conjugation step", "value": 41, "unit": "%"}]}, {"substance": "N-Biotin-Phe-His-ACHPA-IIe-6-AC-sulfo-NHS", "values": [{"measurement": "step yield", "value": 68, "unit": "%"}]}, {"substance": "PEPTIDE1{[Boc].F.H.[ACHPA].I.[Ahx]}$$$$V2.0", "values": [{"measurement": "step yield", "value": 99, "unit": "%"}]}]}
